Values from PubChem BioAssay AID1259405 (NCATS, 2018).
Here is a random part of about 50,000 reagents tested. About 4,000 of all reagents (8%) were called active. 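Mouse siRNA library applied to hamster cells; one well for each siRNA.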 Reagents against one gene are numbered here.

- Aim: 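Silenced genes that increase secreted GFP made by CHO cells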 (primary screen)
- System: Chinese hamster CHO-K1 ovary cells with stable secreted eGFP expression
- Reagents: single siRNA against mouse genes, 0.8 pmol siRNA per well (2 µl of 400 nM stock)
- Duration: 3 days
- Measurement: 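Per-well intracellular GFP measured by laser scanning cytometry, plus viability from ATP luminescence, each relative to plate median of non-targeting control wells, in %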
- Scale: GFP, % of control: higher = more GFP per well, higher productivity; viability (ATP), % of control: higher = more viable cells (more ATP)
- Rule for the call: 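a knock-down is called active if GFP reaches 120% or more of non-targeting control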

Silencing of Sprr2a1 #1 gave: GFP, % of control 82.4; viability (ATP), % of control 48.1; inactive. For Sprr2a1 #2, the values are GFP, % of control 87.3; viability (ATP), % of control 105; inactive. Depletion of Sprr2a1 #3 gave: GFP, % of control 141; viability (ATP), % of control 131; active. Silencing of Or6c1 #1 gave: GFP, % of control 90.5; viability (ATP), % of control 81.6; inactive. Knock-down of Or6c1 #2 came out at: GFP, % of control 37.4; viability (ATP), % of control 22.6; inactive. With knock-down of Or6c1 #3, the screen gave GFP, % of control 88.2; viability (ATP), % of control 64.7; inactive.

Silencing of Thpo #1 gave: GFP, % of control 68.8; viability (ATP), % of control 75.7; inactive. Depletion of Thpo #2 resulted in: GFP, % of control 70.4; viability (ATP), % of control 77.8; inactive. Silencing of Thpo #3 resulted in: GFP, % of control 95.3; viability (ATP), % of control 56.7; inactive. Gm9801 #1 showed GFP, % of control 71.6; viability (ATP), % of control 69.6; inactive. Knock-down of Gm9801 #2 resulted in: GFP, % of control 33.4; viability (ATP), % of control 62.6; inactive. Gm9801 #3 gave GFP, % of control 67.8; viability (ATP), % of control 87.7; inactive.

Against Muc13 #1, the entry reads GFP, % of control 69.8; viability (ATP), % of control 61.6; inactive. For Muc13 #2, the entry reads GFP, % of control 73.9; viability (ATP), % of control 65.5; inactive. For Muc13 #3, the entry reads GFP, % of control 103; viability (ATP), % of control 97.6; inactive. After knock-down of Amdhd2 #1, the record shows GFP, % of control 87.9; viability (ATP), % of control 75.4; inactive. Silencing of Amdhd2 #2 resulted in: GFP, % of control 111; viability (ATP), % of control 136; inactive. With knock-down of Rnd3 #1, the record shows GFP, % of control 132; viability (ATP), % of control 90.7; active.

Rnd3 #2 showed GFP, % of control 97.1; viability (ATP), % of control 77.3; inactive. Against Rnd3 #3, the values are GFP, % of control 50.7; viability (ATP), % of control 46.7; inactive. Dse #1 scored GFP, % of control 58.7; viability (ATP), % of control 72.5; inactive. Dse #2 scored GFP, % of control 34.4; viability (ATP), % of control 59.1; inactive. After knock-down of Dse #3, the screen gave GFP, % of control 69.2; viability (ATP), % of control 84.6; inactive. For Zbtb24 #1, the entry reads GFP, % of control 61.9; viability (ATP), % of control 67.4; inactive.

After knock-down of Zbtb24 #2, the record shows GFP, % of control 82.7; viability (ATP), % of control 73.8; inactive. After knock-down of Zbtb24 #3, the screen gave GFP, % of control 97.3; viability (ATP), % of control 116; inactive. Tnf #1 scored GFP, % of control 0; viability (ATP), % of control 123; inactive. After knock-down of Tnf #2 the results were GFP, % of control 69; viability (ATP), % of control 76; inactive. Against Cep15 #1, the values are GFP, % of control 88.8; viability (ATP), % of control 93.7; inactive. With knock-down of Cep15 #2, the screen gave GFP, % of control 82.6; viability (ATP), % of control 52.9; inactive.

Cep15 #3 gave GFP, % of control 138; viability (ATP), % of control 146; active. Silencing of Apbb1 #1 resulted in: GFP, % of control 67.7; viability (ATP), % of control 62.6; inactive. Apbb1 #2 showed GFP, % of control 103; viability (ATP), % of control 91.3; inactive. With knock-down of Apbb1 #3, the screen gave GFP, % of control 62.4; viability (ATP), % of control 58.5; inactive. Against Eya3 #1 the deposit lists GFP, % of control 93.8; viability (ATP), % of control 66.6; inactive. For Eya3 #2, the values are GFP, % of control 68.5; viability (ATP), % of control 75.5; inactive.

With knock-down of Eya3 #3 the results were GFP, % of control 105; viability (ATP), % of control 85.6; inactive. Silencing of Msh3 #1 gave: GFP, % of control 86.3; viability (ATP), % of control 106; inactive. For Msh3 #2, the entry reads GFP, % of control 184; viability (ATP), % of control 98; active. Against Msh3 #3, the entry reads GFP, % of control 66.3; viability (ATP), % of control 67.6; inactive.

Called active, of those listed so far:
Sprr2a1 #3 — GFP, % of control: 141; viability (ATP), % of control: 131; activity call: active
Rnd3 #1 — GFP, % of control: 132; viability (ATP), % of control: 90.7; activity call: active
Cep15 #3 — GFP, % of control: 138; viability (ATP), % of control: 146; activity call: active
Msh3 #2 — GFP, % of control: 184; viability (ATP), % of control: 98; activity call: active
